Results published in article PMC6891598 (Molecules, 2019).
Some peptides are written in HELM: one residue between dots, names in brackets for other building blocks, links after the first $.

Test: general procedure: Fmoc solid-phase peptide synthesis; 2-Chlorotrityl chloride resin (GLS Biochem); HBTU/DIEA
Details: whole synthesis; for final HPLC purity: analytical RP-HPLC in MeCN and MeOH gradients (0.1% FA); for isolated yield: total yield

Row | Substance | final HPLC purity [%] | isolated mass (scale 0.07 mmol) [mg] | isolated yield [%] | isolated mass (scale 1 mmol) [mg] | isolated mass (scale 0.3 mmol) [mg]
1 | HELM PEPTIDE1{I.L.G.H.[Cit].D.Y.K}$$$$V2.0 (SMILES CC[C@H](C)[C@H](N)C(=O)N[C@@H](CC(C)C)C(=O)NCC(=O)N[C@@H](Cc1c[nH]cn1)C(=O)N[C@@H](CCCNC(N)=O)C(=O)N[C@@H](CC(=O)O)C(=O)N[C@@H](Cc1ccc(O)cc1)C(=O)N[C@@H](CCCCN)C(=O)O) | >97 | 5 | 7.7 | – | –
2 | N-Octadecanyl-Ile-Leu-Gly-His-Cit-Asp-Tyr-Lys-OH | >94 | – | 0.3 | – | –
3 | N-Undecanyl-Ile-Leu-Gly-His-Cit-Asp-Tyr-Lys-OH | >89 | – | 1.4 | – | –
4 | PEPTIDE1{[Dodecanoyl].I.L.G.H.[Cit].D.Y.K}$$$$V2.0 | >99 | – | 15.0 | 159 | –
5 | PEPTIDE1{[N-Dodecyl-D-Ile].[dL].G.[dH].[D-Cit].[dD].[dY].[dK]}$$$$V2.0 | >94 | – | 1.2 | – | –
6 | PEPTIDE1{[N-Dodecyl-Ile].L.G.H.[Cit].D.Y.K}$$$$V2.0 | >95 | – | 0.7 | – | –
7 | PEPTIDE1{[N-Farnesyl-Ile].L.G.H.[Cit].D.Y.K}$$$$V2.0 | >89 | – | 2.5 | – | 9
8 | PEPTIDE1{[N-Hexyl-Ile].L.G.H.[Cit].D.Y.K}$$$$V2.0 | >92 | – | 0.3 | – | 1
9 | PEPTIDE1{[N-Tridecyl-Ile].L.G.H.[Cit].D.Y.K}$$$$V2.0 | >99 | – | 0.4 | – | –
10 | PEPTIDE1{[N-mPEG4-Ile].L.G.H.[Cit].D.Y.K}$$$$V2.0 | >86 | – | 2.9 | – | –
